In patent publication US20050090506A1, “Insecticidal perfluoroalkylthiazole derivatives” (Nippon Soda Co., Ltd., priority 2003, published 2005):
Some results were stated once for a whole list of compounds, not compound by compound.

Test system: Tetranychus urticae (Tu; Two-Spotted Spider Mites)
Assay: Efficacy against Tetranychus urticae (two-spotted spider mites), spray on Kidney-bean seedling
Type: in vivo
Settings: chemical solution at 125 ppm sprayed; adult females on Kidney-bean seedling; three days after treatment; 25° C., 65% RH

| Compound | control (mortality calculated by Abott's formula) [%] |
| --- | --- |
| O=C(Nc1nc(C(F)(C(F)(F)F)C(F)(F)F)c(Cl)s1)c1cccc(C(F)(F)F)c1 [Compound 77] | 100 |
| O=C(Nc1nc(C(F)(F)C(F)(F)F)c(Cl)s1)c1cccc(C(F)(F)F)c1 [Compound 18, N-(5-Cloro-4-pentafluoroethylthiazol-2-yl)-3-trifluoromethylbenzamide] | 100 |
| O=C(Nc1nc(C(F)(F)C(F)(F)C(F)(F)F)c(Cl)s1)c1cccc(C(F)(F)F)c1 [Compound 211] | 100 |
| O=C(Nc1nc(C(F)(F)C(F)(F)F)c(I)s1)c1cc(C(F)(F)F)cc(C(F)(F)F)c1 [Compound 44, N-(5-Iodo-4-pentafluoroethylthiazol-2-yl)-3,5-bis-trifluoro-methylbenzamide] | 100 |
| O=C(Nc1nc(C(F)(F)C(F)(F)F)c(Br)s1)c1ccc(C(F)(F)F)cc1 [Compound 3] | 100 |
| O=C(Nc1nc(C(F)(F)C(F)(F)F)c(Cl)s1)c1cc(C(F)(F)F)cc(C(F)(F)F)c1 [Compound 114] | 100 |
| O=C(Nc1nc(C(F)(F)C(F)(F)F)c(Cl)s1)c1cc(F)c(F)cc1Cl [Compound 148] | 100 |
| O=C(Nc1nc(C(F)(F)C(F)(F)C(F)(F)F)c(Cl)s1)c1cc(F)c(Cl)cc1F [Compound 185] | 100 |
| N#Cc1sc(NC(=O)c2cccc(C(F)(F)F)c2)nc1C(F)(F)C(F)(F)F [Compound 72] | 100 |
| O=C(Nc1nc(C(F)(F)C(F)(F)F)c(Cl)s1)c1cccc(C(F)(C(F)(F)F)C(F)(F)F)c1 [Compound 129] | 100 |
| O=C(Nc1nc(C(F)(F)C(F)(F)F)c(Br)s1)c1cc(C(F)(F)F)cc(C(F)(F)F)c1 [Compound 51] | 100 |
| O=C(Nc1nc(C(F)(F)C(F)(F)F)c(Cl)s1)c1ccc(C(F)(F)F)cc1 [Compound 124] | 100 |
